Where “and” joins values, the source holds several entries; their conditions need not be identical. Equal entries are not always repeated. The list shows a part of the results. The main result of the screen is listed elsewhere. These columns were measured beside it and carry no call. Most of these compounds were active or inconclusive in the main read-out, so they are no random draw. Words in brackets tell the shape of the fitted curve; partial curves, single points and poor fits give uncertain potencies.

A short description of this test: qHTS Assay to Find Inhibitors of Chronic Active B-Cell Receptor Signaling. The following applies: ABC-DLBCL IkBa-CBG/CBR reporter, luminescence ratio (green luciferase fused to IkBa over red control in TMD8 lymphoma cells), 4 h; measured here: CBR red luminescence, cell number. Summed up:
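Cell line TMD8 (human ABC DLBCL), stably expressing tet-inducible CBG68-IkBa fusion and CBR; IMDM/0.5% FBS; cpd up to 46 uM; dox induction, 4 h, 37C/5% CO2; dual luminescence; green/red ratio; MG132 control.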
Regarding `COc1cccc(NC(=O)/C=C/c2ccc(S(=O)(=O)N3CCOCC3)cc2)c1`, the half-maximal activity concentration (AC50) is 1.46 µM [falling, full curve].

`O=C(Cc1ncc(C(F)(F)F)cc1Cl)Nc1ccc(F)cc1`: the AC50 was 0.00461 µM [falling, full curve, poor fit].

As for `COc1ccccc1-c1nc(C(=O)NCC2CCCO2)cc2c1[nH]c1ccccc12` (stereo unspecified), the AC50 was 0.631 µM [falling, full curve].

On to `COc1cc(NC(=O)c2cccs2)c(C(=O)OCC(=O)NC(C)c2ccccc2)cc1OC` (stereo unspecified), for which the half-maximal activity concentration (AC50) was 20.6 µM [falling, single point].

As for `Cc1cc(C)c(S(=O)(=O)c2ccc(F)cc2C)c(Cl)n1`, the half-maximal activity concentration (AC50) was 6.31 µM [falling, single point].

For `Cc1nnc(NC(=O)C2COc3ccccc3O2)s1` (stereo unspecified), the AC50 was 35.5 µM [falling, single point].

Take `C[C@]1(C(=O)NCCCNc2ncc(C(F)(F)F)cc2Cl)C=C[C@@H](Cc2ccccc2)N1C(=O)c1ccccc1`: the AC50 is 18.4 µM [falling, single point].

For `CC1=C(C(=O)OCc2ccc3c(c2)OCO3)C(c2ccc(F)cc2)NC(=O)N1` (stereo unspecified), the AC50 is 35.5 µM [falling, partial curve, poor fit].

On to `COc1ccc(C2(C(=O)N3CCCC3)CCOCC2)cc1OC`, for which the AC50 is 29.1 µM [rising, single point].

For `COCCNc1c(-c2cc3ccc(C)c(C)c3[nH]c2=O)nc2ccccn12`, the AC50 is 5.62 µM [falling, partial curve].

Turning to `COc1ccc(Cl)cc1NC(=S)N(Cc1ccc(C(=O)O)cc1)Cc1ccc(OC)c(OC)c1`, the AC50 was 7.94 µM [falling, partial curve, poor fit].

On to `N#C/C(=C\c1ccc(-c2ccccc2[N+](=O)[O-])o1)C(=O)N1CCOCC1`, for which the concentration at half-maximal activity (AC50) is 4.47 µM [rising, full curve, poor fit].

On to `Cc1ccc(NS(=O)(=O)N2CCOCC2)cc1Cl`, for which the AC50 was 15.8 µM [rising, partial curve, poor fit].

With `Cc1nc(-c2ccc(NC(=O)c3cccs3)cc2)cs1`, the AC50 is 2.31 µM [falling, full curve].

Consider `O=C(NCCCN1CCCCC1)C1CCN(c2ncnc3c2nc2n3CCCCC2)CC1`, for which the AC50 is 3.16 µM [falling, single point].

`CN(C)c1ccc(Nc2nc(N)c3ccccc3n2)cc1`: the half-maximal activity concentration (AC50) was 6.31 µM [falling, partial curve].

As for `C/C(CC(=O)NCc1ccco1)=N\NC(=O)Cc1ccc(-c2ccccc2)cc1`, the AC50 is 29.1 µM [falling, single point].

With `CCSc1nsc(NC(=O)Nc2cccc(OC)c2)n1`, the AC50 was 10 µM [falling, partial curve, poor fit].

Consider `O=C(NCc1ccco1)Nc1ccc([N+](=O)[O-])cc1`, for which the AC50 was 11.2 µM [falling, partial curve, poor fit] and 35.5 µM [falling, single point].

For the molecule `O=C(NNC(=S)Nc1ccccc1)c1cccc(Br)c1`, the concentration at half-maximal activity (AC50) was 3.66 µM [falling, partial curve, poor fit].

As for `CN1CCN(CCP(=O)(c2ccccc2)c2ccccc2)CC1`, the AC50 was 0.206 µM [rising, full curve, poor fit].

For the molecule `O=C(COC(=O)c1ccncc1)Nc1ccccc1`, the AC50 was 35.5 µM [falling, single point].

Consider `CC(=O)c1ccc(NC(=O)C2CCCN(S(=O)(=O)c3cccc4nonc34)C2)cc1` (stereo unspecified), for which the concentration at half-maximal activity (AC50) is 17.8 µM [rising, partial curve, poor fit].

Regarding `COCc1c(C(=O)OCC(=O)N2CCCC2=O)oc2ccccc12`, the AC50 is 23.1 µM [falling, partial curve, poor fit].

Consider `N#CCc1nc(CSc2nc3ccccc3o2)cs1`, for which the AC50 is 10 µM [rising, partial curve, poor fit].

On to `COc1ccc(-c2ccc(/C=C(\NC(=O)c3ccccc3)C(=O)N3CCOCC3)o2)cc1`, for which the AC50 was 22.4 µM [falling, single point].

Regarding `CCCCC(=O)NNC(=O)N1c2ccccc2Sc2ccccc21`, the AC50 was 1.58 µM [rising, full curve, poor fit].

Take `COc1ccc(-c2nc3cc(C)ccn3c2NC2CCCCC2)cc1SC1CCCCC1`: the half-maximal activity concentration (AC50) is 0.731 µM [falling, full curve].

As to `CCOC(=O)C1(Cc2cccc(OC)c2)CCN(Cc2cccc(OC)c2OC)CC1`, the AC50 was 0.1 µM [rising, full curve, poor fit].

With `COc1ccc(C2/C(=C(/O)c3ccccc3)C(=O)C(=O)N2C)cc1OC` (stereo unspecified), the half-maximal activity concentration (AC50) was 5.62 µM [rising, single point].

Consider `N/C(=N\OC(=O)C1CCCCC1)c1ccccn1`, for which the AC50 is 35.5 µM [falling, single point].

With `Cc1ccc(C(OCC(O)CNCc2ccc(F)cc2)c2ccccc2)cc1` (stereo unspecified), the half-maximal activity concentration (AC50) was 35.5 µM [falling, single point].

Turning to `O=C(CCN1C(=O)/C(=C\c2cccs2)SC1=S)Nc1ccccn1`, the half-maximal activity concentration (AC50) was 3.55 µM [falling, partial curve].

`COCCOC(=O)C1=C(C)NC(C)=C(C(=O)OCCOC)C1/C=C/c1ccccc1OC`: the AC50 was 15.8 µM [rising, partial curve, poor fit].

Regarding `Cc1ccc(C)c(NC(=O)c2nnn(Cc3ccccc3)c2N)c1`, the AC50 was 1.12 µM [falling, full curve, poor fit].

As to `COc1cccc(Cl)c1NC(=O)N1CCN(c2cc(C)nc3ccccc23)CC1`, the AC50 was 35.5 µM [falling, single point].

Regarding `CCOC(=O)C(=Cc1ccc(-c2ccsc2C(=O)OC)o1)C(=O)OCC`, the AC50 is 7.94 µM [falling, partial curve, poor fit].

In the case of `Cc1ccc(S(=O)(=O)N(CC(=O)NCc2cccs2)c2ccccc2)cc1`, the half-maximal activity concentration (AC50) was 6.51 µM [falling, partial curve, poor fit].

For the molecule `O=C(CC1SC(N2CCOCC2)=NC1=O)Nc1cccc(C(F)(F)F)c1` (stereo unspecified), the AC50 is 13 µM [rising, partial curve, poor fit].

On to `COCCN1C(=O)c2ccccc2C(C(=O)NCCN(C)C)C1c1ccc(F)cc1` (stereo unspecified), for which the AC50 was 11.2 µM [falling, single point].

Take `CCCCC(=O)OCc1c(-c2ccccc2)ncc2ccccc12`: the AC50 is 16.4 µM [falling, partial curve].

These data come from PubChem BioAssay AID493014 (National Center for Advancing Translational Sciences (NCATS), 2011).
